The target in the assay is ZFYVE21-GFP (UniProt Q9BQ24). The assay is described as follows: affinity purification with mass spectrometry; GFP-Trap agarose pulldown from ZFYVE21-GFP HUVECs treated with vehicle or PRA 25% v/v; trypsin digestion, label-free MS-LC; three preparations.

Sequences of proteins named here, by UniProt entry; tags and fusion partners are left off.
UniProt Q9BQ24: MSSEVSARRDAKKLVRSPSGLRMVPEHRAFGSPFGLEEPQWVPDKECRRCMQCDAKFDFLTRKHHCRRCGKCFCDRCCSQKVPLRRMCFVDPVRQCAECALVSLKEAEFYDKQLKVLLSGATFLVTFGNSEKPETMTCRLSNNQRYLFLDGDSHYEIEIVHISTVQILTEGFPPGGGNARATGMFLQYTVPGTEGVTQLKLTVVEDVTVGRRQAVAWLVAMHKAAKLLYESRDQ

These are yes or no findings as the source states them, for the method shown. Binding seen in cells or lysates may run through a third protein. These calls come from enrichment with a bait or labelling near it, and not all partners need be listed.

B1: Rab5B (protein, UniProt P61020 1-215)
chain: MTSRSTARPNGQPQASKICQFKLVLLGESAVGKSSLVLRFVKGQFHEYQESTIGAAFLTQSVCLDDTTVKFEIWDTAGQERYHSLAPMYYRGAQAAIVVYDITNQETFARAKTWVKELQRQASPSIVIALAGNKADLANKRMVEYEEAQAYADDNSLLFMETSAKTAMNVNDLFLAIAKKLPKSEPQNLGGAAGRSRGVDLHEQSQQNKSQCCSN
Regarding B1, the binding result is on record as “binds”.

The values above are taken from publication PMC11213201.
